# Drug screen on melanoma cell lines: cell count

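Human melanoma cells were exposed to two drugs together for 72 h in 1,536-well plates and read by automated microscopy after fixing and staining. Each value is the count of nuclei relative to DMSO-treated wells, in %, so that 100 equals the control. Concentrations were fixed for each drug; these are the lower of two levels, a fifth of the higher. The file gives one value for each pair and line, without errors, so small differences may be noise.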 An unselected part of the screen is shown. An entry leaves out what has no value listed here.

Every entry is a combination with CX-4945 at 400 nM: O=C(O)c1ccc2c(c1)nc(Nc1cccc(Cl)c1)c1ccncc12

For CC(C)CCN1c2nc(Nc3cc(F)c(O)c(F)c3)ncc2N(C)C(=O)C1C (centres unmarked) at 200 nM the values were 501mel: 86.0; A2058: 83.5; A101D: 81.1; C32: 98.1. For COc1ccc(COc2ccc(Cc3cnc(N)nc3N)cc2OC)cc1 at 1000 nM the values were 501mel: 92.6; A2058: 99.8; A101D: 102; C32: 94.5. With COc1ccc2c(c1)CCC1C2CCC2(C)C(NCCCCCCN3C(=O)C=CC3=O)CCC12 (centres unmarked) at 400 nM the screen read 501mel: 82.3; A2058: 84.4; A101D: 86.8; C32: 98.3.

Results for O=C(O)C(=O)Nc1sc2c(c1C(=O)O)CCNC2 at 1670 nM are 501mel: 113; A2058: 101; A101D: 105; C32: 88.9. O=C1NC(=O)/C(=C/c2ccc(-c3ccc(F)cc3O)o2)S1 at 1000 nM gave 501mel: 94.2; A2058: 101; A101D: 95.6; C32: 105. CCc1ccc(CCOc2ccc(CC3SC(=O)NC3=O)cc2)nc1 (centres unmarked) at 2000 nM gave 501mel: 116; A2058: 89.1; A101D: 103; C32: 111.

With c1cc(-c2cnn3cc(-c4ccc(OCCN5CCCCC5)cc4)cnc23)ccn1 at 400 nM the screen read A2058: 101; A101D: 113; C32: 80.8. Results for Oc1nc(-c2ccc(C(F)(F)F)cc2)nc2c1CSCC2 at 2000 nM are 501mel: 95.4; A2058: 74.6; A101D: 97.7; C32: 104. Results for COC(=O)c1sccc1S(=O)(=O)Nc1ccc(Nc2ccccc2)cc1OC at 1000 nM are 501mel: 118; A2058: 95.7; A101D: 114; C32: 110.

Results for CCCCCCCCCCCC1=C(O)C(=O)C=C(O)C1=O at 1200 nM are 501mel: 106; A2058: 97.6; A101D: 123; C32: 82.9. O=C(Nc1ccccc1)c1cc([N+](=O)[O-])ccc1Cl at 2000 nM gave 501mel: 107; A2058: 86.1; A101D: 106; C32: 94.0. N#Cc1c(O)c2c(-c3ccc(-c4ccccc4O)cc3)csc2[nH]c1=O at 2000 nM gave 501mel: 119; A2058: 97.9; A101D: 118; C32: 107.

Oc1cc(-c2nc(-c3ccccc3)[nH]c2-c2ccncc2)ccc1Cl at 200 nM gave 501mel: 74.7; A2058: 91.6; A101D: 83.7; C32: 92.8. COc1cc2ncnc(Nc3ccc(Oc4ccccc4)cc3)c2cc1OC at 2000 nM gave 501mel: 74.3; A2058: 92.9; A101D: 3.0; C32: 103. Results for COc1cc(N2CCC(N3CCN(C)CC3)CC2)ccc1Nc1ncc(Cl)c(Nc2ccccc2S(=O)(=O)C(C)C)n1 at 80 nM are 501mel: 102; A2058: 74.7; A101D: 101; C32: 115.

With O=S(=O)(c1ccccc1)N(CC(F)(F)F)c1ccc(C(O)(C(F)(F)F)C(F)(F)F)cc1 at 1400 nM the screen read 501mel: 78.7; A2058: 85.6; A101D: 102; C32: 98.7. Results for Cn1cc(/C=C2\C(=O)Nc3cccnc32)c2ccccc21 at 400 nM are A2058: 101; A101D: 112; C32: 93.0. Results for O=c1cc(-c2cccc3c2Sc2ccccc2S3)oc(N2CCOCC2)c1 at 1000 nM are 501mel: 81.1; A2058: 81.4; A101D: 129; C32: 96.6.

With COc1ccc(-c2ccc3c(N4CCOCC4)nc(N4C[C@@H](C)O[C@@H](C)C4)nc3n2)cc1CO at 20 nM the screen read 501mel: 125; A2058: 98.1; A101D: 112; C32: 114. Cc1cc([N+](=O)[O-])ccc1NS(=O)(=O)c1cc(Cl)ccc1Cl at 1000 nM gave A2058: 97.8; A101D: 80.0; C32: 83.2.

2 of the entries, repeated:

{"partner": "Oc1nc(-c2ccc(C(F)(F)F)cc2)nc2c1CSCC2 at 2000 nM", "501mel": 95.4, "A2058": 74.6, "A101D": 97.7, "C32": 104}
{"partner": "c1cc(-c2cnn3cc(-c4ccc(OCCN5CCCCC5)cc4)cnc23)ccn1 at 400 nM", "A2058": 101, "A101D": 113, "C32": 80.8}

Data from the primary screen of doi:10.1371/journal.pone.0140310, rounded.